Measured values taken from PubChem BioAssay AID624156 (Broad Institute, 2012).
Hit rate of the full screen: of about 46,000 compounds, about 900 (2%) were called active. The shares of active, inactive and inconclusive entries below differ from those in the screen. Rule as the data show it: active = ROS induction above about 79% (passing the limit was not always enough); inconclusive = no clear call, values can overlap the other calls.

Assay: ROS inducers in U2OS cancer cells, primary screen, cell-based, H2DCF-DA fluorescence (AID 624156);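 also: 0% = DMSO vehicle median and 100% = reference compound median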
Details: at 10 µM, hits give high values

Q: With COc1ccc(S(=O)(=O)N(C)C[C@@H]2OCCCC[C@@H](C)Oc3ccc(NS(=O)(=O)c4ccc(Cl)cc4)cc3C(=O)N([C@H](C)CO)C[C@@H]2C)cc1 as the molecule, how does the ROS induction (% of piperlongumine) read?
A: inconclusive: 93.7%

Q: Which ROS induction (% of piperlongumine) does the source give for CC(C)N1CC=C2C(C1)C(c1ccccc1)C(C#N)=C(N)C2(C#N)C#N (configuration not stated) here?
A: inconclusive: 109%

Q: With Cc1ccnc(SCC(=O)Nc2ccc(Br)cc2F)n1 as the molecule, how does the ROS induction (% of piperlongumine) read?
A: inactive: -11.9%

Q: Which ROS induction (% of piperlongumine) does the source give for C[C@@H]1CN([C@@H](C)CO)C(=O)CCCn2nncc2CO[C@H]1CN(C)S(=O)(=O)c1ccc(Oc2ccccc2)nc1 here?
A: active: 138%

Q: Which ROS induction (% of piperlongumine) does the source give for C[C@@H]1CN([C@@H](C)CO)C(=O)c2cccc(NC(=O)Nc3ccc4c(c3)OCO4)c2O[C@H]1CN(C)Cc1ccc(C(=O)O)cc1 here?
A: inconclusive: 86.1%

Q: With COc1cccc2c1C(=O)c1c(O)c3c(c(O)c1C2=O)C[C@@](O)(C(=O)CO)C[C@@H]3O[C@H]1C[C@H](N)[C@H](O)[C@H](C)O1 as the molecule, how does the ROS induction (% of piperlongumine) read?
A: inconclusive: 108%

Q: For C[C@H]1CN([C@@H](C)CO)C(=O)c2cccc(NC(=O)Nc3ccc4c(c3)OCO4)c2O[C@@H]1CN(C)Cc1ccc(C(=O)Nc2ccccc2N)cc1, which ROS induction (% of piperlongumine) is on record?
A: active: 123%

Q: With O=C(Nc1cccc(Br)c1)C1C(c2ccccc2)=C1c1ccccc1 as the molecule, how does the ROS induction (% of piperlongumine) read?
A: inactive: 37%

Q: For CC(C)n1c(-c2ccccc2)csc1=Nc1ccccc1, which ROS induction (% of piperlongumine) is on record?
A: inconclusive: 77.6%

Q: Which ROS induction (% of piperlongumine) does the source give for COc1cc(/C=N/NC(=O)c2ccc(C(=O)NO)cc2)c(Br)cc1O here?
A: inactive: -11.1%

Q: For CSc1c(CC(=O)NN)n(C)c2ccccc12, which ROS induction (% of piperlongumine) is on record?
A: inactive: 16%

Q: For C[C@@H]1CN([C@H](C)CO)C(=O)c2cc(NC(=O)CCCCCC(=O)Nc3ccccc3N)ccc2O[C@@H]1CN(C)S(=O)(=O)c1ccccc1, which ROS induction (% of piperlongumine) is on record?
A: inconclusive: 99.9%

Q: With CCOc1ccccc1NC(=O)CN1C(=O)C(=O)c2ccccc21 as the molecule, how does the ROS induction (% of piperlongumine) read?
A: inconclusive: 87.1%

Q: With Cc1ccc2nc(C(F)(F)F)cc(N3CCN(/C=C(/C#N)S(=O)(=O)c4ccccn4)CC3)c2c1 as the molecule, how does the ROS induction (% of piperlongumine) read?
A: active: 92.7%

Q: With c1ccc(-c2nnn3c2nc(N2CCCC2)c2ccccc23)cc1 as the molecule, how does the ROS induction (% of piperlongumine) read?
A: inconclusive: 78.1%

Q: With C[C@@H]1CN([C@H](C)CO)C(=O)c2cccc(NC(=O)Nc3ccc(F)cc3)c2O[C@@H]1CN(C)C(=O)Nc1cccc2ccccc12 as the molecule, how does the ROS induction (% of piperlongumine) read?
A: inactive: 5.62%

Q: Which ROS induction (% of piperlongumine) does the source give for C[C@@H]1CCCCO[C@@H](CN(C)C(=O)Nc2ccc(F)cc2)[C@@H](C)CN([C@H](C)CO)C(=O)c2cc(NC(=O)Cc3ccccc3)ccc2O1 here?
A: inconclusive: 87.4%

Q: Which ROS induction (% of piperlongumine) does the source give for O=C(Nc1ccccc1Cl)c1ccccc1S(=O)(=O)c1ccccc1[N+](=O)[O-] here?
A: active: 134%

Q: For C[C@@H]1CN([C@H](C)CO)C(=O)c2cccc(NC(=O)Nc3ccc(C(F)(F)F)cc3)c2O[C@H]1CN(C)C(=O)Nc1cccc2ccccc12, which ROS induction (% of piperlongumine) is on record?
A: inactive: 20.4%

Q: For CSc1sc(C#N)c2c1C(=O)CC(c1ccccc1)C2 (configuration not stated), which ROS induction (% of piperlongumine) is on record?
A: inconclusive: 78.2%

Q: With C[C@@H]1CCCCO[C@@H](CN(C)C(=O)Nc2ccc(F)cc2)[C@@H](C)CN([C@H](C)CO)C(=O)c2cc(NS(=O)(=O)c3ccc(Cl)cc3)ccc2O1 as the molecule, how does the ROS induction (% of piperlongumine) read?
A: inconclusive: 76.2%

Q: For C[S+](O)c1ccc(CSc2nc(-c3ccc(F)cc3)c(-c3ccncc3)[nH]2)cc1 (configuration not stated), which ROS induction (% of piperlongumine) is on record?
A: inconclusive: 98.6%

Q: For CCOC(=O)C1=CN(c2ccc(C)c(C)c2)C=C(C(=O)OCC)C1c1ccccc1F, which ROS induction (% of piperlongumine) is on record?
A: active: 95.9%

Q: Which ROS induction (% of piperlongumine) does the source give for O=c1c(-c2c(O)cc(O)c3c(=O)cc(-c4ccc(O)cc4)oc23)c(-c2ccc(O)cc2)oc2cc(O)cc(O)c12 here?
A: inactive: 0.011%

Q: Which ROS induction (% of piperlongumine) does the source give for C[C@H]1CN([C@@H](C)CO)C(=O)c2cc(NS(=O)(=O)c3ccccc3)ccc2O[C@@H]1CN(C)C(=O)Nc1ccc(F)cc1 here?
A: inconclusive: 302%

Q: Which ROS induction (% of piperlongumine) does the source give for O=C(COc1ccc(Cl)cc1)Nc1ccc2nc3n(c(=O)c2c1)CCCCC3 here?
A: inactive: 6.24%

Q: Which ROS induction (% of piperlongumine) does the source give for Cc1ccc(S(=O)(=O)N(C)C[C@@H]2Oc3ccc(NC(=O)Nc4ccccc4)cc3C(=O)N([C@H](C)CO)C[C@H]2C)cc1 here?
A: inconclusive: 80.4%

Q: For C[C@H]1CN([C@@H](C)CO)C(=O)c2cc(NC(=O)Cc3cn(C)c4ccccc34)ccc2O[C@@H]1CN(C)Cc1ccc2c(c1)OCO2, which ROS induction (% of piperlongumine) is on record?
A: inconclusive: 113%

Q: For Cc1noc(C)c1NC(=O)Nc1cccc2c1O[C@H](CN(C)CC1CCCCC1)[C@H](C)CN([C@@H](C)CO)C2=O, which ROS induction (% of piperlongumine) is on record?
A: inactive: 46.5%

Q: Which ROS induction (% of piperlongumine) does the source give for Cn1c(SCC(=O)Nc2ccc(F)cc2)nnc1-c1ccc([N+](=O)[O-])cc1 here?
A: inactive: 55.1%

Q: With COc1ccc2c(c1)c(/C=C/c1nc3ccc(I)cc3c(=O)n1CCCO)c(C)n2C as the molecule, how does the ROS induction (% of piperlongumine) read?
A: inconclusive: 99.3%

Q: With COc1ccc(S(=O)(=O)N(C)CC(=O)Nc2ccccc2F)cc1C as the molecule, how does the ROS induction (% of piperlongumine) read?
A: inconclusive: 333%
